Results reported in patent US20130245110A1, “USE FOR CANNABINOIDS” (priority 2008, published 2013).
Where “and” joins values, the source holds several entries; their conditions need not be identical. Equal entries are not always repeated.

Key:
[1] = tested on: dietary induced obese (DIO) mouse model; test: Thermic response to food (energy expenditure after Complan meal), chronic dosing study; assay type: in vivo; design: unit not given here
From the text: Once the acute studies were complete the mice were grouped in two groups of five mice for the chronic dosing study. Dosing was daily by oral gavage at 09:00-10:00.
Energy expenditure consists of basal metabolic rate, exercise-induced energy expenditure, and non-exercise thermogenesis. The latter is the most likely area to be affected by anti-obesity agents. Non-exercise thermogenesis includes the thermic response to food, which in rodents can be measured by examining energy expenditure in response to a meal. This was measured after an oral dose of complan (see methods).

[2] = tested on: dietary induced obese (DIO) mouse model; conditions: DIO mice; analysis of variance
Experimental: (§1) The following are a battery of tests used to elicit the effects of drugs on diseases including type I or II diabetes, obesity, dyslipidaemia, related metabolic disorders and cardiovascular disease. • a) Body weight: Bodyweights of all mice were measured twice weekly during the study. • b) Food intake: Food intake was measured by weight difference taking account of food wastage in the bottom of the cage. • c) Measurement of water consumption: Water intake was calculated daily for each animal, during the treatment period, by weight difference of the water bottle. • d) Oral Glucose Tolerance Test (OGTT): Glucose was dissolved in water (3 g/10 ml) and given to the mice orally at a rate of 3 g/kg. […] Samples were then analysed automatically using a SpectraMax-250 and SoftMax Pro software. • f) Plasma preparation: Blood was collected for the measurement of i) plasma insulin, ii) cholesterol, iii) free fatty acids or iv) triglyceride concentration. • i. Plasma insulin analysis: Plasma insulin was measured using 5 μl of plasma, compared with a mouse insulin standard using a 96-well micro-assay plate • ii. […] The samples were mixed and incubated for 5 minutes before reading at dual wavelengths of 500 and 660 nm. • iii. Plasma free fatty acids: 5 μl samples of plasma were measured into a 96-well assay plate, to which was added 0.2 ml of reagents NEFA C • iv. […]

C57B1/6 ob/ob mouse [3] = test: Thermic effect of a Complan meal: 3-hour energy expenditure; assay type: in vivo; conditions: ob/ob mice, day 17, 10 mg/kg daily oral gavage
C57B1/6 ob/ob mouse [4] = test: Fed plasma HDL-cholesterol; assay type: in vivo; conditions: ob/ob mice, 10 mg·kg−1 daily oral gavage
Experimental: as §1

`Cc1c(C(=O)NN2CCCCC2)nn(-c2ccc(Cl)cc2Cl)c1-c1ccc(I)cc1` [AM 251] was tested, and the “Thermic response to food” value ([1]; DIO mice, days 15-17, 10 mg·kg−1 p.o., Hour 0.44) was 1.11 and 1.31 and 1.97, the “Thermic response to food” value ([1]; DIO mice, days 15-17, 10 mg·kg−1 p.o., Hour 0.67) was 1.81 and 1.97 and 2.49 and the “Thermic response to food” value ([1]; DIO mice, days 15-17, 10 mg·kg−1 p.o., Hour 0.89) was 2.19 and 2.38 and 2.78. The “Thermic response to food” value ([1]; DIO mice, days 15-17, 10 mg·kg−1 p.o., Hour 1.11) was 2.52 and 2.78 and 3.40, the “Thermic response to food” value ([1]; DIO mice, days 15-17, 10 mg·kg−1 p.o., Hour 1.33) was 2.86 and 2.85 and 3.64 and the “Thermic response to food” value ([1]; DIO mice, days 15-17, 10 mg·kg−1 p.o., Hour 1.56) was 3.05 and 3.14 and 3.53. The “Thermic response to food” value ([1]; DIO mice, days 15-17, 10 mg·kg−1 p.o., Hour 2.22) was 3.30 and 4.10 and 3.46, the “Thermic response to food” value ([1]; DIO mice, days 15-17, 10 mg·kg−1 p.o., Hour 2.44) was 3.38 and 4.00 and 3.68 and the “Thermic response to food” value ([1]; DIO mice, days 15-17, 10 mg·kg−1 p.o., Hour 2.67) was 3.42 and 4.24 and 3.78. For the same molecule, the “Thermic response to food” value ([1]; DIO mice, days 15-17, 10 mg·kg−1 p.o., Hour 2.89) was 3.56 and 4.26 and 3.99, the “Thermic response to food” value ([1]; DIO mice, days 15-17, 10 mg·kg−1 p.o., Hour 3.11) was 3.69 and 4.26 and 3.78 and the “Thermic response to food” value ([1]; DIO mice, days 15-17, 10 mg·kg−1 p.o., Hour 3.33) was 3.63 and 4.23 and 3.80. For the same molecule, the “Thermic response to food” value ([1]; DIO mice, days 15-17, 10 mg·kg−1 p.o., Hour 3.56) was 3.79 and 4.24 and 3.62, the “Thermic response to food” value ([1]; DIO mice, days 15-17, 10 mg·kg−1 p.o., Hour 3.78) was 3.79 and 4.21 and 3.54 and the “Thermic response to food” value ([1]; DIO mice, days 15-17, 10 mg·kg−1 p.o., Hour 4.00) was 4.05 and 4.24 and 3.79. For the same molecule, the “Thermic response to food” value ([1]; mouse, in vivo, po) was 3.30 and 3.25 and 3.50 and 3.44, the “Fall in leptin levels” value [2] was “significant effect” and the “Thermic effect of a meal: 3-hour energy expenditure per animal” value (C57B1/6 ob/ob mouse [3]) was “significant effect and 9.00 and 9.38”. The “Fed HDL cholesterol day 28” value (C57B1/6 ob/ob mouse [4]; individual values) was 2.03 and 2.26 and 2.04 and 2.19 and 1.97 and 2.24 and 2.00 and the “percentage HDL cholesterol day 28” value (C57B1/6 ob/ob mouse [4]; HDL as percentage of total cholesterol) was 34.8% and 28.8% and 30.6% and 35.6% and 32.8% and 34.9%.
